Laboratory results from patent US20090197957A1, “Methods and compositions for the treatment of pain” (Nuon Therapeutics, Inc., priority 2005, published 2009).
Entries after “also recorded” stand apart in the source; their conditions may differ. At least one structure is not confirmed: it was looked up by name or label, or the drawing left a doubt.

Key:
established CIA = assay: Treatment of established collagen-induced arthritis (clinical score, paw swelling, histology, relapse); assay type: in vivo, DBA/1 mice; settings: dexamethasone 0.5 mg/kg/2 days
Method: FIG. 2 is a graphical representation of the treatment of established CIA with 3,4-DAA. DBA/1 mice were immunised with type II collagen in CFA and monitored for development of arthritis. On day 1 of arthritis, mice were injected intraperitoneally with 3,4-DAA on a daily basis. Paw thickness was measured with callipers. The clinical scoring system was as follows: 0=normal, 1=slight swelling and/or erythema, and 2=pronounced oedematous swelling. Each limb was graded, giving a maximum score of 8 per mouse. Histological assessment of arthritis was carried out on haematoxylin and eosin stained sections using a scoring system as follows: 0, normal; 1, minimal synovitis without cartilage/bone erosion; 2, synovitis with some marginal erosion but joint architecture maintained; 3, severe synovitis and erosion with loss of normal joint architecture. There were 14 mice/group (data pooled from two separate experiments).
FIG. 5 is a graphical representation of the relapse of arthritis 4 days after cessation of therapy. Mice with established CIA (n=6) were treated with 3,4-DAA (400 mg/kg/day) from days 1 to 5 of arthritis and clinical severity of arthritis was monitored up to day 12. Arthritis is seen to relapse at around day 9.
Type II collagen was purified from bovine cartilage, as described [Williams 2004, Methods Mol. Med. 98:207-216] and solubilized by stirring overnight at 4° C. in acetic acid (0.1M) or Tris buffer (0.05 M Tris, containing 0.2 M NaCl, pH 7.4). […]
Male DBA/1 mice (8-12 weeks old) were immunized intradermally at the base of the tail with bovine type II collagen (200 μg) emulsified in complete Freund's adjuvant (CFA; Difco, West Molesley, UK). Arthritis was monitored clinically using the following scoring system: 0=normal, 1=slight swelling and/or erythema, and 2=pronounced oedematous swelling. […] In addition, paw-swelling was measured using callipers. […]
Therefore, it is clearly of interest to establish what happens in vivo when treatment with 3,4-DAA is stopped. […] Treatment was then stopped and mice were monitored for a further 7 days.

[1] = system: mechanical and thermal allodynia in CIA; assay: Allodynia assessment in arthritic mice (Plantar Von-Frey, Hargreaves test); assay type: in vivo; settings: established arthritis, up to 10 days therapy; 3,4-DAA 200 mg/kg/day, dexamethasone 0.5 mg/kg/2 days
Method: (§1) FIG. 6 is an image depicting that 3,4-DAA inhibits mechanical and thermal allodynia, and inhibits astrocytic activation in arthritic mice. Mechanical (a) and thermal (b) allodynia, and paw swelling (c) and clinical score (d) were assessed in naïve mice on the day of arthritis onset, and up to 10 days following therapy with 200 mg/kg 3,4-DAA, […] dexamethasone, or vehicle. […] Whilst 3,4-DAA therapy reduced astrocytic activation (bottom right panel) dexamethasone had no action on GFAP levels (bottom left panel). Quantification of the number of hyper-plastic astrocytes in the spinal cord 10 days following onset of arthritis was performed (f).
The pain thresholds of the mice were assessed prior to immunization (naïve) on day of onset (day 0) and up to 10 days following therapy with 3,4-DAA (200 mg/kg/day), dexamethasone (0.5 mg/kg/2 days) or vehicle alone (n=9 per group). […] Mechanical hyperalgesia was assessed by applying an increasing force to the hind paw at the rate of 3 g/second, and measuring the force required to elicit lifting of the paw. Thermal hyperalgesia was assessed by applying an increasing infrared source (intensity 50), and measuring the time required for lifting of the paw.

[2] = system: astrocytes in the spinal cord (GFAP); assay: GFAP immunohistochemistry of lumbar spinal cord (astrocytic activation); assay type: in vivo, mice; settings: 10 days following onset of arthritis; 3,4-DAA 200 mg/kg/day, dexamethasone 0.5 mg/kg/2 days
Method: as §1
Upon completion of treatment, animals were sacrificed by CO2 exposure, and the lumbar spinal cord was excised, fixed (10% formalin), and embedded in paraffin. Immunohistochemistry was then performed to detect astrocytes with a rabbit-anti GFAP (glial fibrillary acidic protein) antibody (Dako Cytomation, Glostrup, Denmark). Antibody detection was performed using an ABC peroxidase method (Vector Laboratories, High Wycombe, Bucks., U.K.) (32).
Astrocytic activation has been proposed to be important for the generation of both inflammatory and neuropathic hypersensitivity [Bao et al., 2001, Neuroreport 12:3905-3908; Watkins et al., 2001, Trends Neurosci. 24:450-455]. Astrocytic activation in the spinal cord in CIA was therefore assessed. […]

[3] = up to 10 days therapy, 3,4-DAA 200 mg/kg/day

## C[C@@H]1C[C@H]2[C@@H]3CCC4=CC(=O)C=C[C@]4(C)[C@@]3(F)[C@@H](O)C[C@]2(C)[C@@]1(O)C(=O)CO [dexamethasone]
Established CIA; up to 10 days
  controlling inflammation: very effective
Established CIA; [3]
  clinical score: significantly reduced
  paw swelling: significantly reduced
[1]
  mechanical allodynia: no action
  thermal allodynia: only a transient effect; also recorded: significantly reduced thermal allodynia 3 days following onset only
[2]
  number of activated astrocytes in the spinal cord (GFAP staining): did not affect; also recorded: not affected
